No constants are given. Whether binding was seen depends on the method and setting. In cells and extracts the contact can be indirect. These calls come from enrichment with a bait or labelling near it, and not all partners need be listed. Where a sequence is shown, tags or fusion partners need not be part of it.
Legend:
[1] = target: T1, EcR (isoform A) fused to APEX2 through a 25 nm GS linker, marked with 3xFLAG (Drosophila melanogaster) (UniProt P34021); experiment: proximity labelling; APEX2 fused to EcR or Usp, stably expressed in S2 cells; 20E or DMSO 1 h, biotin-phenol 30 min, 1 mM H2O2 5 min; nuclear extract, Streptavidin-Agarose precipitation, LC-MS/MS
T1 sequence: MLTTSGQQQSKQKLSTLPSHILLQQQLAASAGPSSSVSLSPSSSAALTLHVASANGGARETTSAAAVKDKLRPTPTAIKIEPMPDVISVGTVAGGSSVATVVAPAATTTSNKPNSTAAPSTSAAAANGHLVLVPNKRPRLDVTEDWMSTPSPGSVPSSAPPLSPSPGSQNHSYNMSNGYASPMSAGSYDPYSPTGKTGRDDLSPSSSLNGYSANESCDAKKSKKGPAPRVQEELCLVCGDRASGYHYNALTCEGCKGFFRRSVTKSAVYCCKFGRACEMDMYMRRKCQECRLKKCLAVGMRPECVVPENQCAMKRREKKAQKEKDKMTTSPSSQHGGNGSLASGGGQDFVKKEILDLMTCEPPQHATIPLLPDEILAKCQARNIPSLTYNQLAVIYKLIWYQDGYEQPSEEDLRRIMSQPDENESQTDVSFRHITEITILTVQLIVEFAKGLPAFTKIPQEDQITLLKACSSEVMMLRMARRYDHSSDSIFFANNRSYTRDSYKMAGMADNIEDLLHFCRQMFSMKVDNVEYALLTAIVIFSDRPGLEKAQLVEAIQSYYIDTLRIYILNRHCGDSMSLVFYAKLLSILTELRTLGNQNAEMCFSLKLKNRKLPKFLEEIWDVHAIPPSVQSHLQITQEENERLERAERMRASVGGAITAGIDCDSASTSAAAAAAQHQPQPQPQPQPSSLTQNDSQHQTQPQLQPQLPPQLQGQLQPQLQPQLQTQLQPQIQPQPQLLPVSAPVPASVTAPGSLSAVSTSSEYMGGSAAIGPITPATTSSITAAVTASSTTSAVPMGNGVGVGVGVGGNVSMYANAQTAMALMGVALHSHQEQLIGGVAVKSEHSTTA

Chains of the proteins cited; added tags and fusions are not shown.
UniProt P25439: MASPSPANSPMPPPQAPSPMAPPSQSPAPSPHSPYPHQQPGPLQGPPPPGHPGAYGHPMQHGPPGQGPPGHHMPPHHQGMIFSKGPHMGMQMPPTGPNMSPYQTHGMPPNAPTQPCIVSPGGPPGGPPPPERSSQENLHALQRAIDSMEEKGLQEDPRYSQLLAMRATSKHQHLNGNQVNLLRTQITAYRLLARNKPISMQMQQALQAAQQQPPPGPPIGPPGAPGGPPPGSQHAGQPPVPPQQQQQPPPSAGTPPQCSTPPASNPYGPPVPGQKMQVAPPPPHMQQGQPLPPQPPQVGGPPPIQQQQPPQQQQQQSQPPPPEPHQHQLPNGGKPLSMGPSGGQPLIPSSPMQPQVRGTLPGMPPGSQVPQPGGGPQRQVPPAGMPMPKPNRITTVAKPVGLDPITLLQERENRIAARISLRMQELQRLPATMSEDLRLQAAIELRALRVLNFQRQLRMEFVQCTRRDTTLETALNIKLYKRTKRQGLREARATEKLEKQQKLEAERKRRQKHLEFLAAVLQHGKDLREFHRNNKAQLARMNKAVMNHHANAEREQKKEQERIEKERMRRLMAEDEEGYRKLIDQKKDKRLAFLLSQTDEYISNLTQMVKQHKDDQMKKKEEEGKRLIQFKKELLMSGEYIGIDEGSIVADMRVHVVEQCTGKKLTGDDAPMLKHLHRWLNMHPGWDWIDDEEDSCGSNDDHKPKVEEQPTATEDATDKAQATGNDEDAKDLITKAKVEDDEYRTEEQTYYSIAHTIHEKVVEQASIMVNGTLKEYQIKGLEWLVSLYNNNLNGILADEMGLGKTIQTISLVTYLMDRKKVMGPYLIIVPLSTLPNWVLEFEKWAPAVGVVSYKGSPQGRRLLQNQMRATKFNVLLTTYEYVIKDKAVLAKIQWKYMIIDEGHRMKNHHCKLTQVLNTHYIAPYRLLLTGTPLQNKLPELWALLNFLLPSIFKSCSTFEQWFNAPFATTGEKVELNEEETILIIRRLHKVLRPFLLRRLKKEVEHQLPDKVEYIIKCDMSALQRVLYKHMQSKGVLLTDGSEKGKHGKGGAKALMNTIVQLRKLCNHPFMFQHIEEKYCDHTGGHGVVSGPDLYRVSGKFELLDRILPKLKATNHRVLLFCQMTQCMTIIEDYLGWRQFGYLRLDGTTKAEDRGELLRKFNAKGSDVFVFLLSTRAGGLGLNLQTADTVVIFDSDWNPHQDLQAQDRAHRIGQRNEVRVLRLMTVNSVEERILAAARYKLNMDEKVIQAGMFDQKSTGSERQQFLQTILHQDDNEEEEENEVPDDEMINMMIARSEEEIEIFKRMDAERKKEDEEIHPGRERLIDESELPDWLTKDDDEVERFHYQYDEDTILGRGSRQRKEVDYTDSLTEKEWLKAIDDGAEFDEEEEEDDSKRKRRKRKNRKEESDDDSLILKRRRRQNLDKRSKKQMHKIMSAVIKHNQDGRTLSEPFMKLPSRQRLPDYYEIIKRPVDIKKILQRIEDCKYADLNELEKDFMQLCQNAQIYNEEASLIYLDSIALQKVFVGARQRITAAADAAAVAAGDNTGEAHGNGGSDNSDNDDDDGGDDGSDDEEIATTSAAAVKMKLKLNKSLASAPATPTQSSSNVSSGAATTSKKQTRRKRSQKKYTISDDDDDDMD
UniProt A0A0B4JDA0: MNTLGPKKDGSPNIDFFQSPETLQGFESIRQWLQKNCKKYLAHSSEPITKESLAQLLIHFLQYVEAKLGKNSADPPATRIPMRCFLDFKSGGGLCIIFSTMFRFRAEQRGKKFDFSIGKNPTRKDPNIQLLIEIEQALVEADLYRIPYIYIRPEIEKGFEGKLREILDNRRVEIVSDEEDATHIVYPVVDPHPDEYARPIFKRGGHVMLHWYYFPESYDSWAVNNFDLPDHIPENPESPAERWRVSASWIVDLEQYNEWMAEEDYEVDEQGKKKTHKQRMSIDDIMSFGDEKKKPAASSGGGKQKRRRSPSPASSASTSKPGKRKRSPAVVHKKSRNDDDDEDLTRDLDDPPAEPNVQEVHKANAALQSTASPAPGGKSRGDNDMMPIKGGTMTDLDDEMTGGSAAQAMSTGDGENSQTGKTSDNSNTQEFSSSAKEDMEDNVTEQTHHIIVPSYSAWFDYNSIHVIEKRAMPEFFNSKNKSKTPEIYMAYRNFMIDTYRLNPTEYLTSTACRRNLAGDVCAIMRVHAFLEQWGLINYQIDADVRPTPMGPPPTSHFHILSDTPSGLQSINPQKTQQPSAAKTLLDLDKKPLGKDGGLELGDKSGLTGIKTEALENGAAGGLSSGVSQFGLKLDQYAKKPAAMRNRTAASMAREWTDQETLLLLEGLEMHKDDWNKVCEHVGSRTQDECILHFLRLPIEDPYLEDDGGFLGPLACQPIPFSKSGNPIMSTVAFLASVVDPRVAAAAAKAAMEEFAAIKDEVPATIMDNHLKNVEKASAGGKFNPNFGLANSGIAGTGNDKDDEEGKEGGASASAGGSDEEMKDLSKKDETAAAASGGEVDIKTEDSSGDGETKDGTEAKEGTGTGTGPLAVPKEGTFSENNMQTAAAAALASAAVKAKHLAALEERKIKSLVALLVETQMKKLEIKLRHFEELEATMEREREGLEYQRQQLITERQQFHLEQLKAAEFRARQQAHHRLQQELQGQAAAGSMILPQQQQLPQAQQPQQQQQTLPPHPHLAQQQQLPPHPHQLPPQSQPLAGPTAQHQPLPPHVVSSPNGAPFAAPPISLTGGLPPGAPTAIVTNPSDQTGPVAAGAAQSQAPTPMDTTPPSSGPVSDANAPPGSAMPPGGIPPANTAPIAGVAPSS
UniProt Q94517: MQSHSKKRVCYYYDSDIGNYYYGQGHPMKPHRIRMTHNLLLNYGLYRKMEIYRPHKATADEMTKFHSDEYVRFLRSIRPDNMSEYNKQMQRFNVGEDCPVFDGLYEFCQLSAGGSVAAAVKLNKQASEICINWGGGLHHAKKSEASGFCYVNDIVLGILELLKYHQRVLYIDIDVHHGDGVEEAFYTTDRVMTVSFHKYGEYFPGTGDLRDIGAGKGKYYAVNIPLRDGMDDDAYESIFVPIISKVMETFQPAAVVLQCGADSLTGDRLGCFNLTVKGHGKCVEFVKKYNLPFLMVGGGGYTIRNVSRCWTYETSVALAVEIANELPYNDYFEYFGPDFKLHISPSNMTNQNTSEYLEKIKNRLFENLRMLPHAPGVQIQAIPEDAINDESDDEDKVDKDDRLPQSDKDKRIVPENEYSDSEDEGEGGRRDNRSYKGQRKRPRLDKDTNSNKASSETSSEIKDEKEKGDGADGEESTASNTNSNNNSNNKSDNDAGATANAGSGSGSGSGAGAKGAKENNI
UniProt Q9V460: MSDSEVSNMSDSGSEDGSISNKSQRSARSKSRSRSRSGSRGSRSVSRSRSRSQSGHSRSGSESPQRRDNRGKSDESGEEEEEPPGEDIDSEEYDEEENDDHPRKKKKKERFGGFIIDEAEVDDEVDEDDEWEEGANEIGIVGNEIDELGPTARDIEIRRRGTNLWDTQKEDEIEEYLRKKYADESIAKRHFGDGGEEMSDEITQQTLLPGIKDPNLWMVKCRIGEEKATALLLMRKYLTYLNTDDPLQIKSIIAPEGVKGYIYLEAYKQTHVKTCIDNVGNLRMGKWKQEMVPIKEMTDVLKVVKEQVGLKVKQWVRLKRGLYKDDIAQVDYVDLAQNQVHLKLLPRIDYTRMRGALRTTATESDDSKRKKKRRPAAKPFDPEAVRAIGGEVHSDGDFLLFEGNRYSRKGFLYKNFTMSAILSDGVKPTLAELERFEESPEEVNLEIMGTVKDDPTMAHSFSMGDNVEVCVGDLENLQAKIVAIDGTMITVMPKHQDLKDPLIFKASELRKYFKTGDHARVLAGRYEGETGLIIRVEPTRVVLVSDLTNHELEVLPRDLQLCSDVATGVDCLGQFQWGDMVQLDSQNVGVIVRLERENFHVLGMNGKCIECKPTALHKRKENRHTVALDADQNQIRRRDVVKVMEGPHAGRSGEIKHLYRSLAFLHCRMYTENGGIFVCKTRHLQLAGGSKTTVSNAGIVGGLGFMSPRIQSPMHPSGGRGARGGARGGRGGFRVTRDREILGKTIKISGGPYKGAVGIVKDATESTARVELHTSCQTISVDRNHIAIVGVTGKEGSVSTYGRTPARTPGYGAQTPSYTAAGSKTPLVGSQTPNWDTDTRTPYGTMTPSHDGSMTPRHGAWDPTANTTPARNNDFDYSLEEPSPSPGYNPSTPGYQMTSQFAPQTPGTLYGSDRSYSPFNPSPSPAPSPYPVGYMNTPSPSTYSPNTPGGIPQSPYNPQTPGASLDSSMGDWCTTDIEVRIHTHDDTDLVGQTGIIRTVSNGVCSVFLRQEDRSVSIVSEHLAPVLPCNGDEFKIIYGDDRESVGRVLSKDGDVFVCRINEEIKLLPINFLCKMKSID
UniProt A0A0B4K765: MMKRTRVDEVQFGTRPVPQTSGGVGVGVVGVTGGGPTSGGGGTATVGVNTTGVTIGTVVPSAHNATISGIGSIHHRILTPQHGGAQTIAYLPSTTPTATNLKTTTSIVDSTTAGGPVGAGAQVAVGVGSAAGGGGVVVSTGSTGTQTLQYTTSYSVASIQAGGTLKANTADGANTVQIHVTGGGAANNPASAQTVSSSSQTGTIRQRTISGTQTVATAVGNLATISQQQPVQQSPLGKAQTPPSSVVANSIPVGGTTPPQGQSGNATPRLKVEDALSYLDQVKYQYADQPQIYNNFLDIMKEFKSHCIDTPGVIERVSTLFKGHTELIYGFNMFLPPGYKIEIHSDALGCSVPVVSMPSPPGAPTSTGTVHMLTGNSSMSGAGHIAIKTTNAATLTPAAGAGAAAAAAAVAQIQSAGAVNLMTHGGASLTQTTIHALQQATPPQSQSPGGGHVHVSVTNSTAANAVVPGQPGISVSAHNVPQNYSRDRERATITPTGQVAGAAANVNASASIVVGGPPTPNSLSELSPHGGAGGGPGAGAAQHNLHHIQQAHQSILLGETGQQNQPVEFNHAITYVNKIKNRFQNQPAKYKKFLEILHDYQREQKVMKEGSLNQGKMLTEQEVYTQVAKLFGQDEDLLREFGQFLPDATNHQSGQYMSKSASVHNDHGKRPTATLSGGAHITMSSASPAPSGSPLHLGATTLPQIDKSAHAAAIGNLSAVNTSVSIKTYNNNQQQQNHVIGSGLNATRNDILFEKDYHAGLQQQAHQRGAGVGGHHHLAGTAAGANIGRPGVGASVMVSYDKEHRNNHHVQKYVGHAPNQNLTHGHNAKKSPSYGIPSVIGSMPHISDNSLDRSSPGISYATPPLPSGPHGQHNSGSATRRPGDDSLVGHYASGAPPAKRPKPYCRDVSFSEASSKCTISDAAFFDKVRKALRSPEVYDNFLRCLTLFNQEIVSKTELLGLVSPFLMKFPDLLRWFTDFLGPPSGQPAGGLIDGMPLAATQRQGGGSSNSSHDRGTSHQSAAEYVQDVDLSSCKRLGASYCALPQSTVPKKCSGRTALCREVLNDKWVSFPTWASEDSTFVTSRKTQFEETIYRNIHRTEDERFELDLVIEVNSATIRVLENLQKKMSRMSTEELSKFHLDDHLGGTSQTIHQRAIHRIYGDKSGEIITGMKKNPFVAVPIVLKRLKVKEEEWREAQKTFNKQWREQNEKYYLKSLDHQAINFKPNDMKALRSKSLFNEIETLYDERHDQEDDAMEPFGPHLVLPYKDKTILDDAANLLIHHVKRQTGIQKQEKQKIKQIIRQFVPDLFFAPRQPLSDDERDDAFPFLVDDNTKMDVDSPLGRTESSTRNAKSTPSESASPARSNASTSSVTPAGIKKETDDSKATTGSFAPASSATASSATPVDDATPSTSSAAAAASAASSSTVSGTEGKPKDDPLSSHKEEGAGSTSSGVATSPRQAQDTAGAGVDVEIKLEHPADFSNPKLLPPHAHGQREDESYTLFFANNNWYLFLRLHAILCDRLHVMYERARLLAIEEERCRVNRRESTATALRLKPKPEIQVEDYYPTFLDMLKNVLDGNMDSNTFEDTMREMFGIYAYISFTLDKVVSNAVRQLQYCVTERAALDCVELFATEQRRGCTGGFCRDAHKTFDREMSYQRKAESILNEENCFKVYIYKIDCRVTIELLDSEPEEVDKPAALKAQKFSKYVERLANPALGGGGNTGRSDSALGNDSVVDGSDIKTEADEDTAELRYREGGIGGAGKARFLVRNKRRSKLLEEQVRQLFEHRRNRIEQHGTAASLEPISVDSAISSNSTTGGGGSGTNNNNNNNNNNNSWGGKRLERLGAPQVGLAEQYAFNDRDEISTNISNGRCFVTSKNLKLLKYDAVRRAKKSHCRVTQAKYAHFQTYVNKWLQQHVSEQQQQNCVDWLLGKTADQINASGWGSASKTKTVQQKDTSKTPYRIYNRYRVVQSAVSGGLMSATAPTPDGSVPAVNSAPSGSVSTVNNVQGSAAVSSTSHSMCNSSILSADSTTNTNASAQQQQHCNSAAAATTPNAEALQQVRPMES

[2] = target: T2, Usp fused to APEX2 through a 25 nm GS linker, marked with 3xFLAG (Drosophila melanogaster) (UniProt P20153); experiment: as above
T2 sequence: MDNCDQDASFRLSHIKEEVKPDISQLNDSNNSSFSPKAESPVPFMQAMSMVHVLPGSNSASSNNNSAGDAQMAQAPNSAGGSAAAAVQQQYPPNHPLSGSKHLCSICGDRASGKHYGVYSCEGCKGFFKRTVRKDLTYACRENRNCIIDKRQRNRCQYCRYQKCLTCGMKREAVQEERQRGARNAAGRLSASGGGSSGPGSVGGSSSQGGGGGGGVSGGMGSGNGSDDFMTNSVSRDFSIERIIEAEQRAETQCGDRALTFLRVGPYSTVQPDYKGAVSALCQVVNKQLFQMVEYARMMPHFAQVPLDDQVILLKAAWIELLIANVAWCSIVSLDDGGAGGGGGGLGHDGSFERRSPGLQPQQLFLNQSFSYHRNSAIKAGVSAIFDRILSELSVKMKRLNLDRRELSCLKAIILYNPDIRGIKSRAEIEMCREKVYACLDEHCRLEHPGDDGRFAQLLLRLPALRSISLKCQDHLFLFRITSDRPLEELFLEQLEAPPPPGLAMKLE

[3] = target: T1, EcR (isoform A) fused to APEX2 through a 25 nm GS linker, marked with 3xFLAG (Drosophila melanogaster); experiment: proximity labelling; APEX2 fusions or APEX2 alone in S2 cells, 20E or DMSO 1 h; streptavidin precipitates of nuclear lysates analysed by western blot
[4] = target: T2, Usp fused to APEX2 through a 25 nm GS linker, marked with 3xFLAG (Drosophila melanogaster); experiment: as above
[5] = target: T3, EcR (isoform A) fused to BioID2 through a 25 nm GS linker, marked with 3xFLAG (Drosophila melanogaster) (UniProt P34021); experiment: proximity labelling; BioID2 fused to EcR or Usp, stably expressed in S2 cells; biotin 50 nM, 20E or DMSO for 14 h; nuclear extract, Streptavidin-Agarose precipitation, LC-MS/MS
T3 sequence: T1 sequence

[6] = target: T4, Usp fused to BioID2 through a 25 nm GS linker, marked with 3xFLAG (Drosophila melanogaster) (UniProt P20153); experiment: as above
T4 sequence: T2 sequence

[7] = target: T3, EcR (isoform A) fused to BioID2 through a 25 nm GS linker, marked with 3xFLAG (Drosophila melanogaster); experiment: proximity labelling; BioID2 fusions or BioID2 alone in S2 cells, 20E or DMSO 14 h; streptavidin precipitates of nuclear lysates analysed by western blot
[8] = target: T4, Usp fused to BioID2 through a 25 nm GS linker, marked with 3xFLAG (Drosophila melanogaster); experiment: as above

binding [1]	binding [2]	binding [5]	Substance	other results
binds	binds		Spt6 (from UniProt Q9W420 1-1831)	
	binds		Brm (from UniProt P25439 1-1638)	binding [3]: binds; binding [4]: binds
binds	binds		Nipped-B (from UniProt Q7PLI2 1-2077)	
binds	binds		Osa (from UniProt Q8IN94 1-2716)	
binds	binds		Nup205 (from UniProt Q8IQV9 1-2090)	
		binds	Dsh (from UniProt P51140 1-623)	binding [6]: binds
		binds	CG14712 (from UniProt Q9VGL0)	binding [6]: binds
		binds	Nup214 (from UniProt Q9W1X4 1-1711)	binding [6]: binds
binds	binds		RPII215 (from UniProt D0Z769)	
binds	binds		Prp8 (from UniProt A1Z8U0 1-2396)	
binds			Mi-2 (from UniProt O97159 1-1982)	binding [3]: binds
	binds	binds	Mor (from UniProt A0A0B4JDA0 1-1145)	binding [3]: binds; binding [4]: binds; binding [7]: binds; binding [8]: binds; binding [6]: binds
		binds	bel (from UniProt Q9VHP0 1-798)	
binds	binds		Rpd3 (from UniProt Q94517 1-521)	
binds	binds		l(3)72Ab (from UniProt Q9VUV9 1-2142)	
		binds	Rm62 (from UniProt P19109 1-719)	binding [6]: binds
	binds		Kismet (from UniProt B7Z002 1-5517)	
			Spt5 (from UniProt Q9V460 1-1078)	binding [3]: binds; binding [4]: binds
		binds	CtBP (from UniProt O46036 1-476)	binding [6]: binds
binds	binds		Sin3a (from UniProt A0A0B4K765 1-2066)	
	binds		E(bx) (from UniProt E1JHV6)	
binds	binds		hyd (from UniProt P51592 1-2885)	
binds	binds		CG4119 (from UniProt Q9V3Y5)	
